Source: paper PMC2266940

B1: ETO (eight twenty-one) (protein, UniProt Q06455 1-604)
chain: MISVKRNTWRALSLVIGDCRKKGNFEYCQDRTEKHSTMPDSPVDVKTQSRLTPPTMPPPPTTQGAPRTSSFTPTTLTNGTSHSPTALNGAPSPPNGFSNGPSSSSSSSLANQQLPPACGARQLSKLKRFLTTLQQFGNDISPEIGERVRTLVLGLVNSTLTIEEFHSKLQEATNFPLRPFVIPFLKANLPLLQRELLHCARLAKQNPAQYLAQHEQLLLDASTTSPVDSSELLLDVNENGKRRTPDRTKENGFDREPLHSEHPSKRPCTISPGQRYSPNNGLSYQPNGLPHPTPPPPQHYRLDDMAIAHHYRDSYRHPSHRDLRDRNRPMGLHGTRQEEMIDHRLTDREWAEEWKHLDHLLNCIMDMVEKTRRSLTVLRRCQEADREELNYWIRRYSDAEDLKKGGGSSSSHSRQQSPVNPDPVALDAHREFLHRPASGYVPEEIWKKAEEAVNEVKRQAMTELQKAVSEAERKAHDMITTERAKMERTVAEAKRQAAEDALAVINQQEDSSESCWNCGRKASETCSGCNTARYCGSFCQHKDWEKHHHICGQTLQAQQQGDTPAVSSSVTPNSGAGSPMDTPPAATPRSTTPGTPSTIETTPR
B2: MTG16 (myeloid-transforming gene 16) (protein, UniProt O75081-1 1-653)
chain: MPASRLRDRAASSASGSTCGSMSQTHPVLESGLLASAGCSAPRGPRKGGPAPVDRKAKASAMPDSPAEVKTQPRSTPPSMPPPPPAASQGATRPPSFTPHTHREDGPATLPHGRFHGCLKWSMVCLLMNGSSHSPTAINGAPCTPNGFSNGPATSSTASLSTQHLPPACGARQLSKLKRFLTTLQQFGSDISPEIGERVRTLVLGLVNSTLTIEEFHSKLQEATNFPLRPFVIPFLKANLPLLQRELLHCARLAKQTPAQYLAQHEQLLLDASASSPIDSSELLLEVNENGKRRTPDRTKENGSDRDPLHPEHLSKRPCTLNPAQRYSPSNGPPQPTPPPHYRLEDIAMAHHFRDAYRHPDPRELRERHRPLVVPGSRQEEVIDHKLTEREWAEEWKHLNNLLNCIMDMVEKTRRSLTVLRRCQEADREELNHWARRYSDAEDTKKGPAPAAARPRSSSAGPEGPQLDVPREFLPRTLTGYVPEDIWRKAEEAVNEVKRQAMSELQKAVSDAERKAHELITTERAKMERALAEAKRQASEDALTVINQQEDSSESCWNCGRKASETCSGCNAARYCGSFCQHRDWEKHHHVCGQSLQGPTAVVADPVPGPPEAAHSLGPSLPVGAASPSEAGSAGPSRPGSPSPPGPLDTVPR
B3: MTGR1 (MTG-related protein 1) (protein, UniProt O43439-2 1-575)
chain: MPGSPVEVKIQSRSSPPTMPPLPPINPGGPRPVSFTPTALSNGINHSPPTLNGAPSPPQRFSNGPASSTSSALTNQQLPATCGARQLSKLKRFLTTLQQFGNDISPEIGEKVRTLVLALVNSTVTIEEFHCKLQEATNFPLRPFVIPFLKANLPLLQRELLHCARAAKQTPSQYLAQHEHLLLNTSIASPADSSELLMEVHGNGKRPSPERREENSFDRDTIAPEPPAKRVCTISPAPRHSPALTVPLMNPGGQFHPTPPPLQHYTLEDIATSHLYREPNKMLEHREVRDRHHSLGLNGGYQDELVDHRLTEREWADEWKHLDHALNCIMEMVEKTRRSMAVLRRCQESDREELNYWKRRYNENTELRKTGTELVSRQHSPGSADSLSNDSQREFNSRPGTGYVPVEFWKKTEEAVNKVKIQAMSEVQKAVAEAEQKAFEVIATERARMEQTIADVKRQAAEDAFLVINEQEESTENCWNCGRKASETCSGCNIARYCGSFCQHKDWERHHRLCGQNLHGQSPHGQGRPLLPVGRGSSARSADCSVPSPALDKTSATTSRSSTPASVTAIDTNGL
B4: ETO lacking 30 amino-terminal aminoacids (domain or fragment, UniProt Q06455 31-604)
chain: RTEKHSTMPDSPVDVKTQSRLTPPTMPPPPTTQGAPRTSSFTPTTLTNGTSHSPTALNGAPSPPNGFSNGPSSSSSSSLANQQLPPACGARQLSKLKRFLTTLQQFGNDISPEIGERVRTLVLGLVNSTLTIEEFHSKLQEATNFPLRPFVIPFLKANLPLLQRELLHCARLAKQNPAQYLAQHEQLLLDASTTSPVDSSELLLDVNENGKRRTPDRTKENGFDREPLHSEHPSKRPCTISPGQRYSPNNGLSYQPNGLPHPTPPPPQHYRLDDMAIAHHYRDSYRHPSHRDLRDRNRPMGLHGTRQEEMIDHRLTDREWAEEWKHLDHLLNCIMDMVEKTRRSLTVLRRCQEADREELNYWIRRYSDAEDLKKGGGSSSSHSRQQSPVNPDPVALDAHREFLHRPASGYVPEEIWKKAEEAVNEVKRQAMTELQKAVSEAERKAHDMITTERAKMERTVAEAKRQAAEDALAVINQQEDSSESCWNCGRKASETCSGCNTARYCGSFCQHKDWEKHHHICGQTLQAQQQGDTPAVSSSVTPNSGAGSPMDTPPAATPRSTTPGTPSTIETTPR
B5: ETO-V5 (protein, UniProt Q06455 1-604)
chain: B1 chain
B6: MTG16-V5 (protein, UniProt O75081 1-653)
chain: B2 chain
B7: MTGR1-V5 (protein, UniProt O43439-2 1-575)
chain: B3 chain

biological target: human SIN3B (human); test: co-IP; COS-7 cells co-transfected with pCMV5 constructs; lysis buffer 250 mM NaCl, 20 mM Na-phosphate, 30 mM Na-pyrophosphate (pH 7.0), 5 mM EDTA, 0.1% NP-40; IP overnight with 1 ug α-hSIN3B, α-ETO, α-MTGR1 or α-MTG16 and protein A-Sepharose; Western blot

Q: Which binding does the source give for B1 here?
A: binds

Q: B2 was tested. Which binding did it give?
A: binds

Q: Which binding does the source give for B3 here?
A: no binding

Q: For B4, which binding is on record?
A: no binding

biological target: human SIN3B (human); test: co-IP; COS-7 cells co-transfected with V5-tagged ETO homologues and hSIN3B; IP and Western with α-V5 and α-hSIN3B

Q: How did the binding turn out when B5 was run?
A: binds

Q: Which binding does the source give for B6 here?
A: binds

Q: Which binding does the source give for B7 here?
A: no binding

No constants are given. Whether binding was seen depends on the method and setting. Binding seen in cells or lysates may run through a third protein. Binding can be weak; no strength is given. For some of these results: Tags and fused reporters may be left off the sequences shown.
